Experimental data as given in US20200377563A1.
These are yes or no findings as the source states them, for the method shown. Some entries that bind do so weakly or less than the wild type.

Sequences of proteins named here, by UniProt entry; tags and fusion partners are left off. A change or cut given only in a name is not applied to a line headed by its entry. A line that says so, or that is headed by a name, gives the form on record, which may keep a tag or linker.
cynomolgus monkey IL-17A (A0A2K5TTB0, form named): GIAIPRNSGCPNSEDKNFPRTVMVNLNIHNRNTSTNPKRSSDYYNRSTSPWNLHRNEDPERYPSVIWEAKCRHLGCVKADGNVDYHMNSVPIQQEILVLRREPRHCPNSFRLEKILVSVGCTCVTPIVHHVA

Biological target: lipocalin mutein of SEQ ID NO: 1
Assay: solution competition ELISA: fixed SEQ ID NO: 1 pre-incubated with titrated ligand, free SEQ ID NO: 1 captured on immobilised biotinylated hIL-17A

Which binding does the source give for “cynomolgus monkey IL-17A (from UniProt A0A2K5TTB0 24-155) (ligand)” here?
The binding was “binds”.

“marmoset IL-17A (from UniProt A0ACM8QD00 24-153) (ligand)” was tested. Which binding did it give?
The binding was “binds”.
